Our source for the binding values is patent publication US20180086804A1 (COMMISSARIAT A L ENERGIE ATOMIQUE ET AUX ENERGIES …, published 2018).

These are yes or no findings as the source states them, for the method shown.

What all share (experiment): competition ELISA
Background: An ELISA detects its analyte on a solid surface through an enzyme-linked reagent.

Experiment [1] deals with T1, HLA-DRB4 (HLA-DRB4*01:01) (human).
T1 construct: mature; purified from homozygous EBV-transformed lymphoblastoid cells with antibody L243

The next experiment has as its target T2, HLA-DR3 (HLA-DRB1*03:01) (human).
T2 construct: mature; purified from homozygous EBV-transformed lymphoblastoid cells with antibody L243

For the next experiment, the target named is T3, HLA-DR4 (HLA-DRB1*04:01) (human).
T3 construct: mature; purified from homozygous EBV-transformed lymphoblastoid cells with antibody L243

Experiment [2] addresses T4, HLA-DR11 (HLA-DRB1*11:01) (human).
T4 construct: mature; purified from homozygous EBV-transformed lymphoblastoid cells with antibody L243

In experiment [3] the target is T5, HLA-DR15 (HLA-DRB1*15:01) (human).
T5 construct: mature; purified from homozygous EBV-transformed lymphoblastoid cells with antibody L243

Experiment [4] concerns the target T6, HLA-DRB3 (HLA-DRB3*01:01) (human).
T6 construct: mature; purified from homozygous EBV-transformed lymphoblastoid cells with antibody L243

For a further experiment, the target named is T7, HLA-DR7 (HLA-DRB1*07:01) (human).
T7 construct: mature; purified from homozygous EBV-transformed lymphoblastoid cells with antibody L243

In experiment [5] the target is T8, HLA-DR13 (HLA-DRB1*13:01) (human).
T8 construct: mature; purified from homozygous EBV-transformed lymphoblastoid cells with antibody L243

Experiment [6] concerns the target T9, HLA-DRB5 (HLA-DRB5*01:01) (human).
T9 construct: mature; purified from homozygous EBV-transformed lymphoblastoid cells with antibody L243

In another experiment the target is T10, HLA-DR1 (HLA-DRB1*01:01) (human).
T10 construct: mature; class II HLA molecule purified from homozygous EBV-transformed lymphoblastoid cells with antibody L243

B1: CCNB1 179-193 (peptide)
peptide: RQLEEEQAVRPKYLL
modifications: C-terminal amide
For B1, the binding result was “no binding (tested: rel. affinity >961)” in experiment [1]; “no binding (tested: rel. affinity >825)” with HLA-DR3 (HLA-DRB1*03:01); “no binding (tested: rel. affinity >1771)” with HLA-DR4 (HLA-DRB1*04:01); “no binding (tested: rel. affinity >1949)” in experiment [2]; “no binding (tested: rel. affinity >329)” in [3]; “no binding (tested: rel. affinity >362)” in experiment [4].

B2: CCNB1 128-142 (peptide)
peptide: SPMETSGCAPAEEDL
modifications: C-terminal amide
For B2, the binding entry in experiment [1] was “no binding (tested: rel. affinity >961)”; with HLA-DR3 (HLA-DRB1*03:01), “no binding (tested: rel. affinity >825)”; with HLA-DR7 (HLA-DRB1*07:01), “no binding (tested: rel. affinity >1036)”; with HLA-DR4 (HLA-DRB1*04:01), “no binding (tested: rel. affinity >1771)”; in experiment [5] it was “no binding (tested: rel. affinity >1949)”; in experiment [2], “no binding (tested: rel. affinity >1949)”. For the same molecule, the binding result in experiment [6] is “no binding (tested: rel. affinity >3467)”; in experiment [3], “no binding (tested: rel. affinity >329)”; in experiment [4] it was “no binding (tested: rel. affinity >362)”.

B3: CCNB1 338-352 (peptide)
peptide: HFPPSQIAAGAFCLA
modifications: C-terminal amide
With B3, the binding entry in experiment [1] was “no binding (tested: rel. affinity >961)”; with HLA-DR3 (HLA-DRB1*03:01) it was “no binding (tested: rel. affinity >825)”; with HLA-DR4 (HLA-DRB1*04:01), “no binding (tested: rel. affinity >1771)”; in [5], “no binding (tested: rel. affinity >1949)”; in [2], “no binding (tested: rel. affinity >1949)”; in experiment [6], “no binding (tested: rel. affinity >3467)”. In addition, in [4], the binding result is “no binding (tested: rel. affinity >362)”.

B4: CCNB1 140-154 (peptide)
peptide: EDLCQAFSDVILAVN
modifications: C-terminal amide
B4: the binding result in [1] is reported as “no binding (tested: rel. affinity >961)”; in the experiment with HLA-DR1 (HLA-DRB1*01:01), “no binding (tested: rel. affinity >11262)”; in the experiment with HLA-DR7 (HLA-DRB1*07:01) it was “no binding (tested: rel. affinity >1036)”; in experiment [5] it was “no binding (tested: rel. affinity >1949)”; in [2] it was “no binding (tested: rel. affinity >1949)”; in [6] it was “no binding (tested: rel. affinity >3467)”. Also, in [4], the binding entry was “no binding (tested: rel. affinity >362)”.

B5: CCNB1 347-361 (peptide)
peptide: GAFCLALKILDNGEW
modifications: C-terminal amide
As to B5, the binding entry in experiment [1] is given as “no binding (tested: rel. affinity >961)”; with HLA-DR3 (HLA-DRB1*03:01) it was “no binding (tested: rel. affinity >825)”; with HLA-DR1 (HLA-DRB1*01:01), “no binding (tested: rel. affinity >11262)”; in the experiment with HLA-DR7 (HLA-DRB1*07:01), “no binding (tested: rel. affinity >1036)”; with HLA-DR4 (HLA-DRB1*04:01) it was “no binding (tested: rel. affinity >1771)”; in experiment [5], “no binding (tested: rel. affinity >1949)”. The binding entry was “no binding (tested: rel. affinity >3467)” in experiment [6] and “no binding (tested: rel. affinity >362)” in [4].

B6: CCNB1 50-64 (peptide)
peptide: NKVSEQLQAKMPMKK
modifications: C-terminal amide
In the case of B6, the binding entry in experiment [1] was “no binding (tested: rel. affinity >961)”; with HLA-DR3 (HLA-DRB1*03:01) it was “no binding (tested: rel. affinity >825)”; with HLA-DR1 (HLA-DRB1*01:01), “no binding (tested: rel. affinity >11262)”; with HLA-DR7 (HLA-DRB1*07:01), “no binding (tested: rel. affinity >1036)”; in the experiment with HLA-DR4 (HLA-DRB1*04:01), “no binding (tested: rel. affinity >1771)”; in experiment [3], “no binding (tested: rel. affinity >329)”. Also, the binding entry in experiment [4] is “no binding (tested: rel. affinity >362)”.

B7: CCNB1 58-72 (peptide)
peptide: AKMPMKKEAKPSATG
modifications: C-terminal amide
With B7, the binding entry in experiment [1] is “no binding (tested: rel. affinity >961)”; with HLA-DR3 (HLA-DRB1*03:01), “no binding (tested: rel. affinity >825)”; with HLA-DR1 (HLA-DRB1*01:01) it was “no binding (tested: rel. affinity >11262)”; in the experiment with HLA-DR7 (HLA-DRB1*07:01) it was “no binding (tested: rel. affinity >1036)”; with HLA-DR4 (HLA-DRB1*04:01), “no binding (tested: rel. affinity >1771)”; in experiment [6] it was “no binding (tested: rel. affinity >3467)”. Moreover, the results for the binding result in [3] and in experiment [4] were “no binding (tested: rel. affinity >329)” and “no binding (tested: rel. affinity >362)”, respectively.

B8: CCNB1 77-91 (peptide)
peptide: KKLPKPLEKVPMLVP
modifications: C-terminal amide
With B8, the binding result with HLA-DR3 (HLA-DRB1*03:01) was “no binding (tested: rel. affinity >825)”; with HLA-DR1 (HLA-DRB1*01:01), “no binding (tested: rel. affinity >11262)”; with HLA-DR7 (HLA-DRB1*07:01), “no binding (tested: rel. affinity >1036)”; in the experiment with HLA-DR4 (HLA-DRB1*04:01), “no binding (tested: rel. affinity >1771)”; in experiment [5], “no binding (tested: rel. affinity >1949)”; in experiment [6], “no binding (tested: rel. affinity >3467)”. Moreover, the binding entry in experiment [3] is “no binding (tested: rel. affinity >329)”; in [4], “no binding (tested: rel. affinity >362)”.

B9: CCNB1 147-161 (peptide)
peptide: SDVILAVNDVDAEDG
modifications: C-terminal amide
Consider B9, for which the binding entry is given as “no binding (tested: rel. affinity >961)” in experiment [1]; “no binding (tested: rel. affinity >825)” with HLA-DR3 (HLA-DRB1*03:01); “no binding (tested: rel. affinity >11262)” with HLA-DR1 (HLA-DRB1*01:01); “no binding (tested: rel. affinity >1036)” in the experiment with HLA-DR7 (HLA-DRB1*07:01); “no binding (tested: rel. affinity >1949)” in experiment [5]; “no binding (tested: rel. affinity >1949)” in [2]. The binding entry in [6] is “no binding (tested: rel. affinity >3467)”; in experiment [4], “no binding (tested: rel. affinity >362)”.

B10: CCNB1 108-122 (peptide)
peptide: EPVKEEKLSPEPILV
modifications: C-terminal amide
For the molecule B10, the binding result was “no binding (tested: rel. affinity >961)” in [1]; “no binding (tested: rel. affinity >825)” with HLA-DR3 (HLA-DRB1*03:01); “no binding (tested: rel. affinity >1036)” with HLA-DR7 (HLA-DRB1*07:01); “no binding (tested: rel. affinity >1771)” with HLA-DR4 (HLA-DRB1*04:01); “no binding (tested: rel. affinity >1949)” in experiment [5]; “no binding (tested: rel. affinity >1949)” in experiment [2]. Moreover, the binding entry in experiment [6] was “no binding (tested: rel. affinity >3467)”; in experiment [3] it was “no binding (tested: rel. affinity >329)”; in experiment [4], “no binding (tested: rel. affinity >362)”.

B11: CCNB1 9-23 (peptide)
peptide: SKINAENKAKINMAG
modifications: C-terminal amide
Turning to B11, the binding result in [1] is “no binding (tested: rel. affinity >961)”; with HLA-DR1 (HLA-DRB1*01:01), “no binding (tested: rel. affinity >11262)”; with HLA-DR7 (HLA-DRB1*07:01), “no binding (tested: rel. affinity >1036)”; with HLA-DR4 (HLA-DRB1*04:01) it was “no binding (tested: rel. affinity >1771)”; in experiment [3], “no binding (tested: rel. affinity >329)”; in [4] it was “no binding (tested: rel. affinity >362)”.

B12: CCNB1 43-57 (peptide)
peptide: TALGDIGNKVSEQLQ
modifications: C-terminal amide
Consider B12, for which the binding result in [1] is on record as “no binding (tested: rel. affinity >961)”; with HLA-DR3 (HLA-DRB1*03:01) it was “no binding (tested: rel. affinity >825)”; with HLA-DR1 (HLA-DRB1*01:01), “no binding (tested: rel. affinity >11262)”; with HLA-DR7 (HLA-DRB1*07:01), “no binding (tested: rel. affinity >1036)”; with HLA-DR4 (HLA-DRB1*04:01) it was “no binding (tested: rel. affinity >1771)”; in experiment [2] it was “no binding (tested: rel. affinity >1949)”. Moreover, the binding entry in experiment [6] is on record as “no binding (tested: rel. affinity >3467)”; in experiment [4] it was “no binding (tested: rel. affinity >362)”.

B13: CCNB1 310-324 (peptide)
peptide: SKIGEVDVEQHTLAK
modifications: C-terminal amide
B13: the binding result is recorded as “no binding (tested: rel. affinity >961)” in [1]; “no binding (tested: rel. affinity >11262)” with HLA-DR1 (HLA-DRB1*01:01); “no binding (tested: rel. affinity >1036)” with HLA-DR7 (HLA-DRB1*07:01); “no binding (tested: rel. affinity >1771)” with HLA-DR4 (HLA-DRB1*04:01); “no binding (tested: rel. affinity >329)” in experiment [3]; “no binding (tested: rel. affinity >362)” in experiment [4].

B14: CCNB1 71-85 (peptide)
peptide: TGKVIDKKLPKPLEK
modifications: C-terminal amide
For the molecule B14, the binding entry in experiment [1] is listed as “no binding (tested: rel. affinity >961)”; in the experiment with HLA-DR1 (HLA-DRB1*01:01), “no binding (tested: rel. affinity >11262)”; with HLA-DR7 (HLA-DRB1*07:01) it was “no binding (tested: rel. affinity >1036)”; with HLA-DR4 (HLA-DRB1*04:01) it was “no binding (tested: rel. affinity >1771)”; in experiment [5], “no binding (tested: rel. affinity >1949)”; in [2], “no binding (tested: rel. affinity >1949)”. Besides, the figures for the binding result in [3] and in experiment [4] were “no binding (tested: rel. affinity >329)” and “no binding (tested: rel. affinity >362)”, respectively.

B15: CCNB1 113-127 (peptide)
peptide: EKLSPEPILVDTASP
modifications: C-terminal amide
Consider B15, for which the binding result with HLA-DR7 (HLA-DRB1*07:01) is on record as “no binding (tested: rel. affinity >1036)”; in [5] it was “no binding (tested: rel. affinity >1949)”; in [2], “no binding (tested: rel. affinity >1949)”; in [6], “no binding (tested: rel. affinity >3467)”; in [3], “no binding (tested: rel. affinity >329)”.
